The source of these data is the supplement of paper PMC9233669.

In data set [1] the test system is biotinyl-Ile-oxazolone. In words: self-aminoacylation, catalytic enhancement (BIO) (fold over background); higher = more active; k-Seq, kA / k0A0; sequences stand for … in GGGAAUGGAUCCACAUCUACGAAUUC…UUCACUGCAGACUUGACGAAGCUG
In short, it runs like this: (§1)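 Working in 50 μL HEPES/NaCl/KCl/MgCl2/CaCl2 buffer with 5% acetonitrile at pH 6.9–7.0, mutagenized RNA pools (0.43 μM; 21-nt variable region) were reacted with 2–1250 μM of each biotinyl-aminoacyl-oxazolone for 90 minutes at room temperature. Streptavidin capture followed, with quantification by triplicate qPCR and Illumina sequencing. Catalytic enhancement is reported as median kA over the uncatalyzed rate, the low-activity peak of a bimodal Gaussian fit to the data.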

For data set [2], the system named is biotinyl-Val-oxazolone. Kind of data set: self-aminoacylation, catalytic enhancement (BVO) (fold over background); higher = more active; k-Seq, kA / k0A0; sequences stand for … in GGGAAUGGAUCCACAUCUACGAAUUC…UUCACUGCAGACUUGACGAAGCUG
In short, it runs like this: as §1

For data set [3], the system named is biotinyl-Met-oxazolone. Kind of data set: self-aminoacylation, catalytic enhancement (BMO) (fold over background); higher = more active; k-Seq, kA / k0A0; sequences stand for … in GGGAAUGGAUCCACAUCUACGAAUUC…UUCACUGCAGACUUGACGAAGCUG
Put shortly: as §1

The subject of data set [4] is biotinyl-Leu-oxazolone. In words: self-aminoacylation, catalytic enhancement (BLO) (fold over background); higher = more active; k-Seq, kA / k0A0; sequences stand for … in GGGAAUGGAUCCACAUCUACGAAUUC…UUCACUGCAGACUUGACGAAGCUG
In short, it runs like this: as §1

Data set [5] deals with biotinyl-Trp-oxazolone. In words: self-aminoacylation, catalytic enhancement (BWO) (fold over background); higher = more active; k-Seq, kA / k0A0; sequences stand for … in GGGAAUGGAUCCACAUCUACGAAUUC…UUCACUGCAGACUUGACGAAGCUG
Put shortly: as §1

Variants at the background level are over-represented here.

In the case of “CAGUUUGCUCAUAGUCGCAAG [Fam3.1 aminoacylation ribozyme variant]”, the self-aminoacylation in data set [1] is 1.26; in data set [2], 1.22; in data set [3], 1.13; in data set [4], 1.27; in data set [5] it was 1.39.
On the same counts, the results for “AUGAACCUAGGUCAUCGGGUG [Fam2.2 aminoacylation ribozyme variant]” are 4.29, 4.28, 5.97, 7.54 and 6.44.
On the same counts, the results for “AAGUUUUCUAAUAGUCGAAAG [Fam3.1 aminoacylation ribozyme variant]” are 1.24, 1.04, 1.05, 0.996 and 1.39.
The like results for “AUUUACCUAGGUCAUCGGAUG [Fam2.2 aminoacylation ribozyme variant]” were, in that order, 0.906, 0.974, 0.954, 0.846 and 0.671.
For the sequence “CAGUUUGCUAAUAGUCCCAAG [Fam3.1 aminoacylation ribozyme variant]”, the self-aminoacylation in data set [1] was found to be 1.21; in data set [2], 0.892; in data set [3] it was 1.22; in data set [4], 1.04; in data set [5] it was 0.755.
The like results for “AUGCACUUAGGUCAUCGGGUG [Fam2.2 aminoacylation ribozyme variant]” were, in that order, 5.29, 5.03, 8.73, 10.6 and 7.92.
The like results for “AUUCACCUAGGUCAUUGGUUG [Fam2.2 aminoacylation ribozyme variant]” were, in that order, 0.962, 1.06, 0.783, 1.09 and 0.579.
On the same counts, the results for “GAGUUUGUUAAUAGUCGCAAG [Fam3.1 aminoacylation ribozyme variant]” are 1.93, 1.5, 1.66, 1.67 and 1.57.
On to “CCACUCUUCAAUCAAUCGGUC [Fam1B.1 aminoacylation ribozyme variant]”, for which the self-aminoacylation in data set [1] turned out to be 1.01; in data set [2] it was 1.05; in data set [3], 0.97; in data set [4] it was 1.47; in data set [5], 20.3.
On the same counts, the results for “AUUCACGUAGGUCUUCGGGUG [Fam2.2 aminoacylation ribozyme variant]” are 3.86, 5.24, 4.21, 4.82 and 4.88.
On the same counts, the results for “AUUUACCUAGGCCAUCGGGUG [Fam2.2 aminoacylation ribozyme variant]” are 2.47, 3.2, 3.07, 3.95 and 3.98.
The like results for “AUUCACCUAGGUAAUCGAGUG [Fam2.2 aminoacylation ribozyme variant]” were, in that order, 1.14, 1.22, 1.52, 1.61 and 0.974.
In the case of “AUUCUCCUAGGUCAUCGGUUG [Fam2.2 aminoacylation ribozyme variant]”, the self-aminoacylation was 1.22 in data set [1]; 1.26 in data set [2]; 1.39 in data set [3]; 1.5 in data set [4]; 0.865 in data set [5].
“CUAAUUCAAACAAACGGUCUG [Fam1A.1 aminoacylation ribozyme variant]”: the self-aminoacylation in data set [1] turned out to be 0.823; in data set [2], 0.917; in data set [3], 0.616; in data set [4], 0.561; in data set [5] it was 0.543.
The like results for “AUUCACCUAGGACAUCGUGUG [Fam2.2 aminoacylation ribozyme variant]” were, in that order, 0.833, 0.784, 0.928, 1.39 and 0.572.
“AUUACCCGGGUCGUCGAGUGA [Fam2.1 aminoacylation ribozyme variant]”: the self-aminoacylation was 1.51 in data set [1]; 1.37 in data set [2]; 1.1 in data set [3]; 1.23 in data set [4]; 1.46 in data set [5].
Turning to “CUACUUCAAACAAUCGGCCCG [Fam1A.1 aminoacylation ribozyme variant]”, the self-aminoacylation in data set [1] stood at 1.34; in data set [2], 1.25; in data set [3] it was 1.46; in data set [4], 1.23; in data set [5], 1.9.
For the sequence “AAGUUUACUAAUAGCCGCAAG [Fam3.1 aminoacylation ribozyme variant]”, the self-aminoacylation stood at 1.86 in data set [1]; 1.71 in data set [2]; 1.44 in data set [3]; 1.23 in data set [4]; 1.45 in data set [5].
For “AAGCUUGCUAAUAGUCCCAAG [Fam3.1 aminoacylation ribozyme variant]”, the self-aminoacylation in data set [1] came out at 1.34; in data set [2] it was 1.04; in data set [3] it was 1.5; in data set [4], 1.32; in data set [5], 1.73.
Take “AAGUUUGCUAAUAGGGGCAAG [Fam3.1 aminoacylation ribozyme variant]”: the self-aminoacylation in data set [1] was 0.686; in data set [2], 0.649; in data set [3], 0.663; in data set [4], 0.505; in data set [5] it was 0.665.
With “CCACACUUCAAGCGAUGGGUC [Fam1B.1 aminoacylation ribozyme variant]”, the self-aminoacylation in data set [1] is 1.28; in data set [2], 1.34; in data set [3] it was 0.968; in data set [4], 1.41; in data set [5], 1.65.
The like results for “UUUCACCUAGGUUAUCGGGUG [Fam2.2 aminoacylation ribozyme variant]” were, in that order, 2.92, 2.93, 3.71, 3.72 and 4.62.
For the sequence “AAGCUUCCUAAUAGUCGCAAG [Fam3.1 aminoacylation ribozyme variant]”, the self-aminoacylation in data set [1] turned out to be 1.98; in data set [2], 1.68; in data set [3], 1.5; in data set [4], 1.33; in data set [5] it was 1.25.
On the same counts, the results for “AGGUUUGCUAAUAGUCGCAUG [Fam3.1 aminoacylation ribozyme variant]” are 1.62, 1.28, 1.73, 1.64 and 1.7.
“AUUACCCUGGUCAGCGAGUGC [Fam2.1 aminoacylation ribozyme variant]”: the self-aminoacylation in data set [1] worked out at 1.25; in data set [2], 1.43; in data set [3], 1.77; in data set [4], 1.93; in data set [5], 1.42.
The like results for “CUACUACAAACAAUCGGUCUG [Fam1A.1 aminoacylation ribozyme variant]” were, in that order, 0.694, 0.743, 0.634, 0.608 and 0.73.
On the same counts, the results for “AAGUUUUCUUAUAGUCGCAAG [Fam3.1 aminoacylation ribozyme variant]” are 1.86, 1.46, 1.54, 1.75 and 1.81.
The like results for “CUACUCCAAUCAAUCGGUCUG [Fam1A.1 aminoacylation ribozyme variant]” were, in that order, 0.771, 0.929, 0.81, 0.799 and 1.52.
